# These are yes or no findings as the source states them, for the method shown. Some results given as binding are weak or reduced against the parent protein; the word gives no strength.
# Amino acid sequences for entries named in this document (tags omitted). Residues count along the entry.
# UniProt Q8NHJ6, residues 22-259: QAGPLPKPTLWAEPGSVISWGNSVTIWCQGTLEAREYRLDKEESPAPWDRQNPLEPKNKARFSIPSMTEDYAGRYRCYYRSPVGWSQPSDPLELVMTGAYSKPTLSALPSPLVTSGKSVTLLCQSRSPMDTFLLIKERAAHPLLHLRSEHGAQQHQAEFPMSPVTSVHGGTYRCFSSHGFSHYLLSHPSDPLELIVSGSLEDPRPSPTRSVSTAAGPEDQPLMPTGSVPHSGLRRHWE
# Target: LILRB4抗原 (人LILRB4蛋白胞外段) (human) (UniProt Q8NHJ6)
# Assay: phage ELISA on coated LILRB4
row,Binder,binding
1,"MA-Ⅰ 噬菌体单克隆抗体 (phage-displayed single-chain antibody) (scFv, V domains shown) VH: EVQLQQSGGGLVKPGGSLKLSCAASGFTFSSYTMSWVRQTPEKRLEWVATISSGGTYTYYPDSVKGRFTISRDNAKNTLYLQMSSLKSEDTAMYYCTRDGYDGFDYWGQGTTLTVSS VL: DIVMTQTTLSLPVSPGDQASISCRSSQSLAHSNGNTYLHWYLQKPGQSPKLLIYKVSNRFSGVPDRFSGSGSGTDFTLKISRVEAEDLGVYFCSQSTLVPTFGGGTKLEIK",binds
2,"MB-Ⅰ 噬菌体单克隆抗体 (phage-displayed single-chain antibody) (scFv, V domains shown) VH: QVQLQESGAELVKPGASVKLSCKASGYTFTNYWMHWVKQRPGQGLEWIGEINPSNGRTNYNEKFKTKATLTVDKSSSTAYMQLSSLTSEDSAVYYCARWGQLGLREGYYAVDYWGQGTSVTVSS VL: DIVMTQSPSSLSASLGDRVTISCRASQDISNYLNWYQQKPDGTVKLLIYYTSRLHSGVPSRFSGSGSGTDYSLTISNLEQEDIATYFCQQGNTLPPTFGGGTKLEIK",binds
